Laboratory results published in article PMC7819943, “Rice protein-binding microarrays: a tool to detect cis-acting elements near promoter regions in rice”.
The list shows a part of the results.

By UniProt entry, the sequences of proteins in these tests, tags left out.
UniProt Q0JBA9, entry or part of it: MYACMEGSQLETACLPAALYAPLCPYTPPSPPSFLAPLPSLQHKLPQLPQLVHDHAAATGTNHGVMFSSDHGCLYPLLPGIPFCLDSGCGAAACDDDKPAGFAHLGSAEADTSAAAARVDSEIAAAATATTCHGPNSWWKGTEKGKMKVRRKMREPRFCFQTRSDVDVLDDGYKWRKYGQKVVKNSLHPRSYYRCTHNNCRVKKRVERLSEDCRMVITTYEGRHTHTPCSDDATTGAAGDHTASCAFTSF

biological target: OsWRKY34 (Oryza sativa, UniProt Q0JBA9 1-250); assay: protein-binding microarray (RPBM); PBS, 2% BSA, 51.3 ng/ul salmon testes DNA, 50 uM zinc acetate, 200 nM TF, 25 C, 1 h; high values mean tight binding; conditions: protein: recombinant; tags: N-terminal polyhistidine and DsRed monomer fusion (pET32a); label: CyDye5-dUTP incorporated in the synthesized complementary strand; 3' TTTTT single-stranded linker to array surface; dsDNA, one strand shown
Summary of the method: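 Per-feature fluorescence intensity (arbitrary units), read on an Axon 4000B scanner, is the binding signal. Transcription factors carrying an N-terminal polyhistidine tag and DsRed fusion were expressed in E. coli BL21-CodonPlus and purified on Ni–NTA. A custom Agilent array, made double-stranded by primer extension with Cy5-dUTP and blocked with 2% BSA, was incubated with 200 nM protein in PBS, 2% BSA, salmon testes DNA and 50 µM zinc acetate at 25 °C for 1 h and then washed.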

Row | Sequence | binding signal
1 | GCCCATGTGAAAGACCAACGGATAACTCCAGTTTTTGTTTCGGAGTCACCTAGTGCAG | 9330 fluorescence intensity (a.u.)
2 | CTTACTACCTCCGTATTTTAGTGTATGATGCCGTTGACTTCGGAGTCACCTAGTGCAG | 14500 fluorescence intensity (a.u.)
3 | CCGCACATCGCGTTCGTTCCGCTGCTTCCGCCGCATCCTGCGGAGTCACCTAGTGCAG | 14700 fluorescence intensity (a.u.)
4 | CCCCGCGTCCACTTCTCCACTCCCACCACCACCATGCAACCGGAGTCACCTAGTGCAG | 8450 fluorescence intensity (a.u.)
5 | GTGCCGCTTGCGTCGCGCTCGCCGGCCCCGCTCTCGTCGCCGGAGTCACCTAGTGCAG | 8150 fluorescence intensity (a.u.)
6 | ATTTGAGTTCAATTTTTCTATGGTTGGTTCTTGTGTGTTCCGGAGTCACCTAGTGCAG | 13700 fluorescence intensity (a.u.)
7 | ATTCTTTTCCTATCATTTGATTCATTGTTAAATATATTTTCGGAGTCACCTAGTGCAG | 9910 fluorescence intensity (a.u.)
8 | CTCGTCACTGTCTTGTACTCCCTCCGTTTCAAAATATTTGCGGAGTCACCTAGTGCAG | 12800 fluorescence intensity (a.u.)
9 | GTAGTAGTGATATAGTTTCTCTCTTCTCACAAGCAGCTCACGGAGTCACCTAGTGCAG | 8850 fluorescence intensity (a.u.)
10 | TTTTTTCTGTAAGGTGTCATATTTCTTCAATTGATGGATACGGAGTCACCTAGTGCAG | 8340 fluorescence intensity (a.u.)
11 | AGCATCCACACGTGCGTTTCTTTTCTTTTCTTTCCGGCCGCGGAGTCACCTAGTGCAG | 8060 fluorescence intensity (a.u.)
12 | TAGTTTCTAAGTTTTTCTTCAAACTTCCAACTTTTTTATCCGGAGTCACCTAGTGCAG | 8630 fluorescence intensity (a.u.)
13 | GATCTCATCCCGTCCCGTCATCTGCTTCCTCTCTCGGAACCGGAGTCACCTAGTGCAG | 16900 fluorescence intensity (a.u.)
14 | ACTCCGCCCTGTCCATGATGCTCTACCTCCGTATTGCTAACGGAGTCACCTAGTGCAG | 8080 fluorescence intensity (a.u.)
15 | CCACCGGCCGATCTCCTCTTCCACAGCCCTACATCCCAAACGGAGTCACCTAGTGCAG | 8350 fluorescence intensity (a.u.)
16 | AGTTCCCGTAGTATCTAAACTGCACTCCACCGCACATAGACGGAGTCACCTAGTGCAG | 8770 fluorescence intensity (a.u.)
17 | ATCGCCGTCGCCGTCGCCTTCGCCTTCGCCTTCGTCGAGCCGGAGTCACCTAGTGCAG | 8830 fluorescence intensity (a.u.)
18 | CACTTAACTAGTCAACGCTTTTGACAGCGGCGTTCTTCATCGGAGTCACCTAGTGCAG | 10000 fluorescence intensity (a.u.)
19 | ATACATATGCACTCCATCCCTTCAATTGTAATCCAAGATACGGAGTCACCTAGTGCAG | 8380 fluorescence intensity (a.u.)
20 | GTAAAATATCGAGTTCGCACATCTTGTTGTCTGATTATTGCGGAGTCACCTAGTGCAG | 10800 fluorescence intensity (a.u.)
21 | TGAGGTGGTGTTCTTGCTGTTCTTGTTATTTTTTTCTTTTCGGAGTCACCTAGTGCAG | 15600 fluorescence intensity (a.u.)

Row | Sequence | binding signal
22 | CAGCCTTATATTTGATCCCTATCCAGGCATTCACCAGCATCGGAGTCACCTAGTGCAG | 8330 fluorescence intensity (a.u.)
23 | CTCCACACTGCCTCGCCAACCAACCACCGCTACACACGAGCGGAGTCACCTAGTGCAG | 8690 fluorescence intensity (a.u.)
24 | GGGGCGCCGGGAAGGAGGGCGCTGTGTGGGAGGGAGGGAGCGGAGTCACCTAGTGCAG | 17100 fluorescence intensity (a.u.)
25 | CAGGCATGTCCAGTATAGGTGTTATTATATTTTATTATTACGGAGTCACCTAGTGCAG | 8910 fluorescence intensity (a.u.)
26 | CAGCAATTCATTGTGCAATCACCATCGTCAATCGTGTCGTCGGAGTCACCTAGTGCAG | 8130 fluorescence intensity (a.u.)
27 | TCCTTTGCCTTCAAAGGCATCGTGCCTTTGTCACTTACATCGGAGTCACCTAGTGCAG | 8820 fluorescence intensity (a.u.)
28 | TTTGCCCATTTTATTCCCTTGCGTCATCCATTTACTGCTTCGGAGTCACCTAGTGCAG | 9470 fluorescence intensity (a.u.)
29 | TAACTGCGTTGACATGTCGCCTTGCTATACTCACATTCTTCGGAGTCACCTAGTGCAG | 9470 fluorescence intensity (a.u.)
30 | ACATTCCTAATTAATTCGGTTTTTCGCCATTGGTGCATGTCGGAGTCACCTAGTGCAG | 8040 fluorescence intensity (a.u.)
31 | ACTGGACACCATAGCTTCTTCGCCCGTCGTTTGCCTATCTCGGAGTCACCTAGTGCAG | 11600 fluorescence intensity (a.u.)
32 | TGCATTTCGATCACCTCGTCCTTCGTGGCGACATACCTTTCGGAGTCACCTAGTGCAG | 8620 fluorescence intensity (a.u.)
33 | GCTCACGGCTCACCTATAAATAAGCAGCTTTGCCTCTCACCGGAGTCACCTAGTGCAG | 8400 fluorescence intensity (a.u.)
34 | AAATAATATATTGTACCTAGGAGTTATTCCCTCCGTCCCACGGAGTCACCTAGTGCAG | 8870 fluorescence intensity (a.u.)
35 | AGGAGAGATGAGTTAGGGTGTGTTTAGTTCTTTGGGCGTACGGAGTCACCTAGTGCAG | 12100 fluorescence intensity (a.u.)
36 | TGAGCAACAACCTCCTCTCCGGTGCAATTCCGGCGTTCTTCGGAGTCACCTAGTGCAG | 8630 fluorescence intensity (a.u.)
37 | TTTATTGATTTGTTTCTCTGCTGTTTTCTTTCCAGCAAGGCGGAGTCACCTAGTGCAG | 9300 fluorescence intensity (a.u.)
38 | CGGTGATCTCGCCGCCTCGACCATCCGCCCGCGAAATCCGCGGAGTCACCTAGTGCAG | 8270 fluorescence intensity (a.u.)
39 | CATCCATCCACCCATAGCTATCTCTAGCTAGCTTGCACATCGGAGTCACCTAGTGCAG | 8590 fluorescence intensity (a.u.)
40 | CTAGCTCGAGCTCCAATCTCTTGCTCACTCTCTGCTCAGTCGGAGTCACCTAGTGCAG | 9230 fluorescence intensity (a.u.)
41 | GCCGCCTCGCCGTCGCTGTCCACTCACCGACCCGCCGCCGCGGAGTCACCTAGTGCAG | 8020 fluorescence intensity (a.u.)
42 | CCTTGCCCTATCTTTGTCTTAGCGCTGTGCATCAGTGTTACGGAGTCACCTAGTGCAG | 8510 fluorescence intensity (a.u.)

Reformatted as comma-separated lines: entries from further up.
Row,Sequence,binding signal
33,GCTCACGGCTCACCTATAAATAAGCAGCTTTGCCTCTCACCGGAGTCACCTAGTGCAG,8400 fluorescence intensity (a.u.)
34,AAATAATATATTGTACCTAGGAGTTATTCCCTCCGTCCCACGGAGTCACCTAGTGCAG,8870 fluorescence intensity (a.u.)
35,AGGAGAGATGAGTTAGGGTGTGTTTAGTTCTTTGGGCGTACGGAGTCACCTAGTGCAG,12100 fluorescence intensity (a.u.)
